Literature values in patent US7109015B2, “Removal of N-terminal methionine from proteins by engineered methionine aminopeptidase” (Academia Sinica, priority 2004, dated 2006).
Some entries share one result that the patent states for a list of compounds.

Conditions: E. coli MetAP mutations; Chiu et al. 1999; cited from earlier work

| Molecule | Catalytic activity, % activity of the wild type |
| --- | --- |
| E204V: E. coli MetAP mutation in the cobalt-binding site (protein, UniProt P0AE18 2-264, looked up, variant E204V) Methionine aminopeptidase: AISIKTPEDIEKMRVAGRLAAEVLEMIEPYVKPGVSTGELDRICNDYIVNEQHAVSACLGYHGYPKSVCISINEVVCHGIPDDAKLLKDGDIVNIDVTVIKDGFHGDTSKMFIVGKPTIMGERLCRITQESLYLALRMVKPGINLREIGAAIQKFVEAEGFSVVREYCGHGIGRGFHEEPQVLHYDSRETNVVLKPGMTFTIVPMVNAGKKEIRTMKDGWTVKTKDRSLSAQYEHTIVVTDNGCEILTLRKDDTIPAIISHDE | 2˜6% |
| E235V: E. coli MetAP mutation in the cobalt-binding site (protein, UniProt P0AE18 2-264, looked up, variant E235V) Methionine aminopeptidase: AISIKTPEDIEKMRVAGRLAAEVLEMIEPYVKPGVSTGELDRICNDYIVNEQHAVSACLGYHGYPKSVCISINEVVCHGIPDDAKLLKDGDIVNIDVTVIKDGFHGDTSKMFIVGKPTIMGERLCRITQESLYLALRMVKPGINLREIGAAIQKFVEAEGFSVVREYCGHGIGRGFHEEPQVLHYDSRETNVVLKPGMTFTIEPMVNAGKKEIRTMKDGWTVKTKDRSLSAQYVHTIVVTDNGCEILTLRKDDTIPAIISHDE | 2˜6% |
| D97A: E. coli MetAP mutation in the cobalt-binding site (protein, UniProt P0AE18 2-264, looked up, variant D97A) Methionine aminopeptidase: AISIKTPEDIEKMRVAGRLAAEVLEMIEPYVKPGVSTGELDRICNDYIVNEQHAVSACLGYHGYPKSVCISINEVVCHGIPDDAKLLKDGDIVNIAVTVIKDGFHGDTSKMFIVGKPTIMGERLCRITQESLYLALRMVKPGINLREIGAAIQKFVEAEGFSVVREYCGHGIGRGFHEEPQVLHYDSRETNVVLKPGMTFTIEPMVNAGKKEIRTMKDGWTVKTKDRSLSAQYEHTIVVTDNGCEILTLRKDDTIPAIISHDE | 2˜6% |
| D108A: E. coli MetAP mutation in the cobalt-binding site (protein, UniProt P0AE18 2-264, looked up, variant D108A) Methionine aminopeptidase: AISIKTPEDIEKMRVAGRLAAEVLEMIEPYVKPGVSTGELDRICNDYIVNEQHAVSACLGYHGYPKSVCISINEVVCHGIPDDAKLLKDGDIVNIDVTVIKDGFHGATSKMFIVGKPTIMGERLCRITQESLYLALRMVKPGINLREIGAAIQKFVEAEGFSVVREYCGHGIGRGFHEEPQVLHYDSRETNVVLKPGMTFTIEPMVNAGKKEIRTMKDGWTVKTKDRSLSAQYEHTIVVTDNGCEILTLRKDDTIPAIISHDE | 2˜6% |
| H171L: E. coli MetAP mutation in the cobalt-binding site (protein, UniProt P0AE18 2-264, looked up, variant H171L) Methionine aminopeptidase: AISIKTPEDIEKMRVAGRLAAEVLEMIEPYVKPGVSTGELDRICNDYIVNEQHAVSACLGYHGYPKSVCISINEVVCHGIPDDAKLLKDGDIVNIDVTVIKDGFHGDTSKMFIVGKPTIMGERLCRITQESLYLALRMVKPGINLREIGAAIQKFVEAEGFSVVREYCGLGIGRGFHEEPQVLHYDSRETNVVLKPGMTFTIEPMVNAGKKEIRTMKDGWTVKTKDRSLSAQYEHTIVVTDNGCEILTLRKDDTIPAIISHDE | 2˜6% |
